Experimental data from PMC4270795.
These are yes or no findings as the source states them, for the method shown. Binding seen in cells or lysates may run through a third protein.

By UniProt entry, the sequences of proteins in these tests, tags left out.
UniProt O43524: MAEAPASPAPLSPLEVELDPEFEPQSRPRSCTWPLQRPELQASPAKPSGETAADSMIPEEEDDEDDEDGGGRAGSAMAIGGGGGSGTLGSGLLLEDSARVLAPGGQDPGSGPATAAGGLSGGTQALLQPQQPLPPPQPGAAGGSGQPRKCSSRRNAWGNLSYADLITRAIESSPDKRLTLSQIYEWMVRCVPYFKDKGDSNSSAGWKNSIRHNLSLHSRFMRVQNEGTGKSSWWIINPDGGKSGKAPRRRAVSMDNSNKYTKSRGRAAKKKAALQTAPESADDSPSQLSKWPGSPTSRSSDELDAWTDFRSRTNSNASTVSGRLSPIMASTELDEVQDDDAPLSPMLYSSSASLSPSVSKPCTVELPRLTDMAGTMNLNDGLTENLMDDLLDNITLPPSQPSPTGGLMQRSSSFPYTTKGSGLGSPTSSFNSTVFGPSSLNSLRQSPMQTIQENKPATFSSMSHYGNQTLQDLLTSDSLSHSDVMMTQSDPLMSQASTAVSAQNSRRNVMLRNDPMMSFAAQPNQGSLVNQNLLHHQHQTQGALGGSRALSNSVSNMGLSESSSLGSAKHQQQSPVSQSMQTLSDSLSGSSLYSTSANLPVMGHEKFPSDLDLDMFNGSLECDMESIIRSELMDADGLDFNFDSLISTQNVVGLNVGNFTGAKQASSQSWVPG

Biological target: HTLV-1 Tax oncoprotein (HTLV-1) (UniProt P03409)
Experiment: co-IP; anti-Tax immunoprecipitation (clone 1A3; Tax blotted with clone LT4) from CHAPS-buffer lysates with protease inhibitors, 500 ug of proteins; primary CD4+ T cells transduced 48 h with LVPTax; isotype IgG1 as negative control; n = 4

FOXO3a transcription factor (from UniProt O43524 1-673)
binding: no binding
